Source: US20190367612A1
No constants are given. Whether binding was seen depends on the method and setting. Some results given as binding are weak or reduced against the parent protein; the word gives no strength.

Chains of the proteins cited; added tags and fusions are not shown. Lines headed by an entry give the natural chain unless they say otherwise; changes in a name come on top. Residues count along the entry.
UniProt P07766: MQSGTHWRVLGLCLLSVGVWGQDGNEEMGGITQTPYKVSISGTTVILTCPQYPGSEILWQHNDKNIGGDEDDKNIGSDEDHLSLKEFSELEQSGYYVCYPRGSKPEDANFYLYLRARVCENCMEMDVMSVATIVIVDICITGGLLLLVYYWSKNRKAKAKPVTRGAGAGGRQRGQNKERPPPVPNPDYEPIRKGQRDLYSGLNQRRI
UniProt Q95LI5, residues 22-198: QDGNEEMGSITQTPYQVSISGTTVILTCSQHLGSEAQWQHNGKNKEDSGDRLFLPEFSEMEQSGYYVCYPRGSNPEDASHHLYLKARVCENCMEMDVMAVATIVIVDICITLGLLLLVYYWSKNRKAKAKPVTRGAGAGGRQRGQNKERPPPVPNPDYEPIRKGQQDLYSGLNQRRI

Assays:
human CD3 (human) [1] = molecular target: human CD3 (human) (UniProt P07766); assay: flow cytometry on human PBMC (dead and CD19-positive cells excluded), Penta-His Alexa Fluor 488 detection, rMFI = MFI minus sample without antibody
[2] = molecular target: cynomolgus monkey CD3 (cynomolgus monkey) (UniProt Q95LI5); assay: flow cytometry, cynomolgus monkey PBMC
human CD3 (human) [3] = molecular target: human CD3 (human) (UniProt P07766); assay: flow cytometry, human PBMC
[4] = molecular target: cynomolgus monkey CD3 (cynomolgus monkey) (UniProt Q95LI5); assay: flow cytometry on cynomolgus monkey PBMC, Penta-His Alexa Fluor 488 detection, rMFI = MFI minus sample without antibody

Measured: binding

B1: anti-GPRC5D-anti-CD3 bispecific molecule C3048-C3E7034 (bispecific antibody)
scFv: GQVQLVQSGAEVKKPGSSVKVSCKASGGTFSRYAISWVRQAPGQGLEWMGGIIPIFGTANYAQKFQGRVTITADQSTRTAYMDLGRLRSEDTAVYYCALEGFRDSLKRNPFDIWGQGTMVTVSSGGGGSGGGGSGGGGSQSVVTQPPSVSAAPGQKVTISCSGGTTNIGSNYVSWYQQLPGTAPKFLMYENNKRPSGIPDRFSGSKSGTSATLAITGLQTGDEATYYCSTWDSSLNTGLFGGGTKLTVLGGGGSEVQLVESGGGLVQPGGSLRLSCAASGVTFNYYGMSWIRQAPGKGLEWVASITNSGGRIYYPDSVKGRFTISRENTQKTLYLQMNSLRAEDTAVYYCTLDGRDGWVAYWGQGTLVTVSSGGGGSGGGGSGGGGSNFMLTQPHSVSESPGKTVTISCKRNTGNIGSNYVNWYQQHEGSSPTTIIYRDDKRPDGVSDRFSGSIDRSSKSASLTISNLKTEDEADYFCQSYSSGFIFGGGTKLTVLGAAAGAGGDYKDDDDKGAAAHHHHHH
binds: all assays above

B2: anti-GPRC5D-anti-CD3 bispecific molecule C3022-C3E7034 (bispecific antibody)
scFv: GQVQLVQSGAEVKKPGASVKVSCKASGYTFTGYYMHWVRQAPGQGLEWMGRINPNSGGTNYAQKFQGRVTMTRDTSISTAYMELSGLRSDDTAVYYCASGSVRHPWGQGTLVTVSSGGGGSGGGGSGGGGSQPVLTQPPSASGTPGQRVTISCSGSRSNIGGNIVSWYQQFPGTAPRLLTYADNQRPSGVPDRFSGSKSGTSASLAISGLQSEDEADYYCAAWDDSLNGVVFGGGTKLTVLGGGGSEVQLVESGGGLVQPGGSLRLSCAASGVTFNYYGMSWIRQAPGKGLEWVASITNSGGRIYYPDSVKGRFTISRENTQKTLYLQMNSLRAEDTAVYYCTLDGRDGWVAYWGQGTLVTVSSGGGGSGGGGSGGGGSNFMLTQPHSVSESPGKTVTISCKRNTGNIGSNYVNWYQQHEGSSPTTIIYRDDKRPDGVSDRFSGSIDRSSKSASLTISNLKTEDEADYFCQSYSSGFIFGGGTKLTVLGAAAGAGGDYKDDDDKGAAAHHHHHH
binds: all assays above

B3: anti-GPRC5D-anti-CD3 bispecific molecule C3048-C3E7035 (bispecific antibody)
scFv: GQVQLVQSGAEVKKPGSSVKVSCKASGGTFSRYAISWVRQAPGQGLEWMGGIIPIFGTANYAQKFQGRVTITADQSTRTAYMDLGRLRSEDTAVYYCALEGFRDSLKRNPFDIWGQGTMVTVSSGGGGSGGGGSGGGGSQSVVTQPPSVSAAPGQKVTISCSGGTTNIGSNYVSWYQQLPGTAPKFLMYENNKRPSGIPDRFSGSKSGTSATLAITGLQTGDEATYYCSTWDSSLNTGLFGGGTKLTVLGGGGSEVQLVESGGGLVQPGGSLRLSCAASGVTFNYYGMSWIRQAPGKGLEWVASITNSGGRIYYPDSVKGRFTISRENTQKTLYLQMNSLRAEDTAVYYCTLDGRDGWVAYWGQGTLVTVSSGGGGSGGGGSGGGGSMAQAVLTQPSSVSGVPGQRVTISCKRNTGNIGSNYVNWYQQLPGTAPKLLIYRDDKRPSGVPDRFSGSKSGTSASLAITGFQAEDEADYYCQSYSSGFIFGGGTKLTVLGAAAGAGGDYKDDDDKGAAAHHHHHH
binds: all assays above

B4: anti-GPRC5D-anti-CD3 bispecific molecule C3022-C3E7035 (bispecific antibody)
scFv: GQVQLVQSGAEVKKPGASVKVSCKASGYTFTGYYMHWVRQAPGQGLEWMGRINPNSGGTNYAQKFQGRVTMTRDTSISTAYMELSGLRSDDTAVYYCASGSVRHPWGQGTLVTVSSGGGGSGGGGSGGGGSQPVLTQPPSASGTPGQRVTISCSGSRSNIGGNIVSWYQQFPGTAPRLLTYADNQRPSGVPDRFSGSKSGTSASLAISGLQSEDEADYYCAAWDDSLNGVVFGGGTKLTVLGGGGSEVQLVESGGGLVQPGGSLRLSCAASGVTFNYYGMSWIRQAPGKGLEWVASITNSGGRIYYPDSVKGRFTISRENTQKTLYLQMNSLRAEDTAVYYCTLDGRDGWVAYWGQGTLVTVSSGGGGSGGGGSGGGGSMAQAVLTQPSSVSGVPGQRVTISCKRNTGNIGSNYVNWYQQLPGTAPKLLIYRDDKRPSGVPDRFSGSKSGTSASLAITGFQAEDEADYYCQSYSSGFIFGGGTKLTVLGAAAGAGGDYKDDDDKGAAAHHHHHH
binds: all assays above

B5: anti-GPRC5D-anti-CD3 bispecific molecule C3048-C3E7036 (bispecific antibody)
scFv: GQVQLVQSGAEVKKPGSSVKVSCKASGGTFSRYAISWVRQAPGQGLEWMGGIIPIFGTANYAQKFQGRVTITADQSTRTAYMDLGRLRSEDTAVYYCALEGFRDSLKRNPFDIWGQGTMVTVSSGGGGSGGGGSGGGGSQSVVTQPPSVSAAPGQKVTISCSGGTTNIGSNYVSWYQQLPGTAPKFLMYENNKRPSGIPDRFSGSKSGTSATLAITGLQTGDEATYYCSTWDSSLNTGLFGGGTKLTVLGGGGSEVQLVESGGGLVQPGGSLRLSCAASGVTFNYYGMSWIRQAPGKGLEWVASITNSGGRIYYPDSVKGRFTISRENTQKTLYLQMNSLRAEDTAVYYCTLDGRDGWVAYWGQGTLVTVSSGGGGSGGGGSGGGGSNFMLTQPSSVSGVPGQRVTISCTGNTGNIGSNYVNWYQQLPGTAPKLLIYRDDKRPSGVPDRFSGSKSGTSASLAITGFQAEDEADYYCQSYSSGFIFGGGTKLTVLGAAAGAGGDYKDDDDKGAAAHHHHHH
binds: all assays above

B6: anti-GPRC5D-anti-CD3 bispecific molecule C3022-C3E7036 (bispecific antibody)
scFv: GQVQLVQSGAEVKKPGASVKVSCKASGYTFTGYYMHWVRQAPGQGLEWMGRINPNSGGTNYAQKFQGRVTMTRDTSISTAYMELSGLRSDDTAVYYCASGSVRHPWGQGTLVTVSSGGGGSGGGGSGGGGSQPVLTQPPSASGTPGQRVTISCSGSRSNIGGNIVSWYQQFPGTAPRLLTYADNQRPSGVPDRFSGSKSGTSASLAISGLQSEDEADYYCAAWDDSLNGVVFGGGTKLTVLGGGGSEVQLVESGGGLVQPGGSLRLSCAASGVTFNYYGMSWIRQAPGKGLEWVASITNSGGRIYYPDSVKGRFTISRENTQKTLYLQMNSLRAEDTAVYYCTLDGRDGWVAYWGQGTLVTVSSGGGGSGGGGSGGGGSNFMLTQPSSVSGVPGQRVTISCTGNTGNIGSNYVNWYQQLPGTAPKLLIYRDDKRPSGVPDRFSGSKSGTSASLAITGFQAEDEADYYCQSYSSGFIFGGGTKLTVLGAAAGAGGDYKDDDDKGAAAHHHHHH
binds: all assays above
